Experiment: Fluorescence emission spectra
Type: physicochemical
Settings: λexc = 350 nm, 5 μM, assay buffer 0.1% DMSO

Compound | Fluorescence
Cc1ccc2c(c1)C(=O)C1(O)CCN(c3ccccc3)C1=N2 (stereo not drawn) [blebbistatin] | high fluorescence
Cc1ccc2c(c1)C(=O)[C@]1(O)CCN(c3ccc(N)cc3)C1=N2 [para-aminoblebbistatin] | non-fluorescent
Cc1ccc2c(c1)C(=O)[C@]1(O)CCN(c3ccc([N+](=O)[O-])cc3)C1=N2 [para-nitroblebbistatin] | non-fluorescent

From publication PMC4886532, “A highly soluble, non-phototoxic, non-fluorescent blebbistatin derivative” (Scientific Reports, 2016)
